Test results as given in PubChem BioAssay AID1487 (National Center for Advancing Translational Sciences (NCATS), 2009).
Where “and” joins values, the source holds several entries; their conditions need not be identical. Identical values can stand only once. This is one part of the list. Shown are side measurements of this screen, not its main read-out; they come without a call. Compounds called inactive in the main read-out are mostly missing here. Potencies come from curve fits of mixed quality, noted in brackets.

Assay: qHTS Assay for Modulators of Lamin A Splicing
Conditions: HeLa LMNA splicing GFP/RFP minigene ratio, 48 h
Summary of the method: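 S3 HeLa stable clones carrying a lamin A-EGFP splicing minigene plus DsRed2 were seeded at 600 cells/well in Opti-MEM with 2% FBS, pin-dosed and incubated 48 h at 37°C. Acumen cytometry (488 nm) gave the GFP/RFP total-intensity ratio.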

[1] = measured here: GFP splicing reporter channel
[2] = measured here: RFP viability control channel

With C/C(=N\NC(=O)C(N)=O)c1ccc(OC(F)F)cc1 the AC50 [1] was 0.158 µM [falling, full curve, poor fit].
With CC(C)C[C@H](NC(=O)Nc1ccc(S(N)(=O)=O)cc1)C(=O)O the AC50 [1] was 0.02 µM [rising, full curve, poor fit] and the AC50 [2] was 0.00501 µM [rising, full curve, poor fit].
In the case of O=C(COC(=O)C12CC3CC(CC(Br)(C3)C1)C2)N1CCOCC1, the AC50 [2] is reported as 0.0631 µM [falling, full curve, poor fit].
With N#Cc1ccccc1NC(=O)C(=O)NCC(c1cccnc1)N1CCc2ccccc21 (centres undefined) the AC50 [1] was 1.41 µM [rising, full curve].
For CCOC(=O)N1CCN(S(=O)(=O)c2ccc(C(=O)Nc3nnc(CSC)o3)cc2)CC1, the AC50 [1] was 35.5 µM [rising, single point] and the AC50 [2] was 35.5 µM [rising, single point].
In the case of COc1ccc(NC(=O)c2ccc(-c3nn(C)c(=O)c4ccccc34)cc2)cc1, the AC50 [1] is reported as 3.98 µM [falling, full curve, poor fit] and the AC50 [2] is reported as 0.0251 µM [falling, full curve, poor fit].
With COc1ccccc1-c1cc(C(=O)N/N=C/c2ccc(C)s2)c2ccccc2n1 the AC50 [2] was 11.2 µM [rising, partial curve].
For CC(C)NNC(=O)c1ccncc1, the AC50 [1] was 7.08 nM [falling, full curve, poor fit] and 3.98 µM [falling, partial curve, poor fit] and the AC50 [2] was 0.00501 µM [falling, full curve, poor fit].
For CC(C)(C)n1nnnc1C(c1ccc(F)cc1)N(Cc1ccc(F)cc1)Cc1ccco1 (centres undefined), the AC50 [2] was 22.4 µM [rising, single point].
In the case of CCOC(=O)N1CCC(N2CCCC(C(=O)c3ccc4cc(OC)ccc4c3)C2)CC1 (centres undefined), the AC50 [1] is reported as 7.08 µM [falling, partial curve, poor fit].
In the case of CC(C)CN1C=C2C(=O)C(C)(OC(=O)CCc3ccccc3)C(=O)C=C2C=C1c1ccc(C#N)cc1 (centres undefined), the AC50 [1] is reported as 0.000794 µM [rising, full curve, poor fit].
In the case of COc1ccc([N+](=O)[O-])cc1NC(=O)C(C)OC(=O)c1ccccc1C(=O)c1ccc(Cl)cc1 (centres undefined), the AC50 [2] is reported as 11.2 µM [rising, partial curve, poor fit].
With CCn1c(-c2ccc([N+](=O)[O-])cc2)n[nH]c1=S the AC50 [1] was 12.6 µM [rising, single point].
For COc1cc(/C=N/NC(N)=S)ccc1OCc1ccc(C)cc1, the AC50 [1] was 2.24 µM [rising, full curve, poor fit] and the AC50 [2] was 12.6 µM [rising, partial curve, poor fit].
In the case of COc1cccc(N(CC(=O)N/N=C(\C)c2cccs2)S(C)(=O)=O)c1, the AC50 [1] is reported as 15.8 µM [rising, single point] and the AC50 [2] is reported as 35.5 µM [rising, single point].
In the case of CCn1c(=O)c(C(=O)NCCc2ccccc2)c(O)c2ccccc21, the AC50 [2] is reported as 14.1 µM [rising, single point].
For CCOc1ccc(Nc2oc(-c3ccc(COc4ccc(C)cc4)o3)nc2C#N)cc1, the AC50 [1] was 2.24 µM [falling, partial curve] and the AC50 [2] was 31.6 µM [falling, partial curve, poor fit].
In the case of CCOC(=O)/C(=N\Nc1ccccc1[N+](=O)[O-])c1csc(N)n1, the AC50 [1] is reported as 0.891 µM [falling, full curve] and the AC50 [2] is reported as 0.0282 µM [falling, full curve].
For CCCCC(=O)Nc1ccc(C(=O)OCc2cc(=O)n3ccsc3n2)cc1, the AC50 [1] was 35.5 µM [falling, partial curve, poor fit].
In the case of CCOC(=O)c1sc2cccc(F)c2c1S(=O)(=O)Nc1ccccc1F, the AC50 [1] is reported as 25.1 µM [rising, single point] and the AC50 [2] is reported as 28.2 µM [rising, single point].
In the case of Cc1ccc(NC(=O)Cn2c(=O)cc(-c3ccccc3)c3c(C)nn(C)c32)c(Cl)c1, the AC50 [1] is reported as 0.282 µM [rising, full curve].
For CCOc1ccc(S(=O)(=O)NC2CCCCCC2)cc1, the AC50 [2] was 35.5 µM [falling, single point].
With c1ccn2cc(CSC3=NCCS3)nc2c1 the AC50 [2] was 2.51 µM [rising, partial curve, poor fit].
With C=CCNC(=O)c1onc(CSc2ccc(Cl)cc2)c1C(=O)O the AC50 [1] was 12.6 µM [falling, single point].
With COc1ccc(OC)c(S(=O)(=O)NCc2ccc3c(c2)CCN3C(=O)c2cccc(C)c2)c1 the AC50 [1] was 17.8 µM [falling, single point] and the AC50 [2] was 20 µM [falling, single point].
For O=C(NC(c1ccccc1)c1c(O)ccc2ccccc12)c1ccccc1Cl (centres undefined), the AC50 [1] was 35.5 µM [falling, single point] and the AC50 [2] was 22.4 µM [falling, single point].
With CC(=O)N(CCC1(C(C)C)CCOC(C)(C)C1)Cc1ccco1 (centres undefined) the AC50 [1] was 0.00355 µM [rising, full curve, poor fit] and the AC50 [2] was 0.00891 µM [rising, full curve, poor fit].
For Cc1ccc(NC(=S)N(C)Cc2cn(C)c3ccccc23)cc1, the AC50 [2] was 15.8 µM [rising, partial curve].
With Cc1ccc2c(c1)cc(CN(Cc1ccc3c(c1)OCO3)S(=O)(=O)c1ccccc1)c1nnnn12 the AC50 [1] was 12.6 µM [rising, partial curve, poor fit].
In the case of CC1CCN(C(=S)c2cn(Cc3cccc(F)c3)c3ccccc23)CC1, the AC50 [1] is reported as 35.5 µM [rising, single point] and the AC50 [2] is reported as 31.6 µM [rising, single point].
For CCn1c(=O)cc(SCC(=O)NCCCN2CCN(c3ccccc3F)CC2)c2ccccc21, the AC50 [2] was 35.5 µM [rising, single point].
For Cc1ccccc1CNC(=O)c1ccc(Cn2c(SCc3ccccc3)nc3cccnc32)cc1, the AC50 [1] was 0.02 µM [falling, full curve, poor fit].
For O=S(=O)(c1ccccc1)c1cnc(-c2cccnc2)nc1-c1ccc(Cl)cc1Cl, the AC50 [1] was 11.2 µM [falling, single point] and the AC50 [2] was 17.8 µM [falling, partial curve].
For COc1ccccc1NC(=O)CSC(N)=O, the AC50 [2] was 11.2 µM [rising, single point].
For S=C(NCCSCc1ccc(Cl)cc1Cl)Nc1ccccc1, the AC50 [1] was 15.8 µM [falling, partial curve] and the AC50 [2] was 22.4 µM [falling, partial curve].
With Cc1ccc(-c2csc(NNC(=O)c3ccccc3)n2)cc1 the AC50 [1] was 14.1 µM [rising, partial curve, poor fit] and the AC50 [2] was 35.5 µM [rising, single point].
In the case of O=C(CCCSc1nc(-c2ccco2)cc(C(F)(F)F)n1)NCc1cccs1, the AC50 [1] is reported as 11.2 µM [rising, partial curve, poor fit].
With CCOC(=O)c1ccc(NC(=O)c2cc(S(=O)(=O)N3CCOCC3)ccc2O)cc1 the AC50 [2] was 12.6 µM [rising, single point].
For Cc1cccc(C)c1NC(=O)CN(C)S(=O)(=O)c1ccc2[nH]c3c(c2c1)CCCC3, the AC50 [1] was 11.2 µM [falling, partial curve, poor fit].
For CC(=O)Nc1ccccc1OCCOc1ccc(Br)cc1, the AC50 [2] was 8.91 µM [rising, partial curve, poor fit].
With O=C(Nc1nc(-c2ccc(S(=O)(=O)N3CCCCCC3)cc2)cs1)c1cccs1 the AC50 [1] was 3.55 µM [rising, partial curve, poor fit] and the AC50 [2] was 3.16 µM [rising, single point].
For CC(C)COc1ccc(C(=O)N2CCC(c3nc4ccccc4s3)CC2)cc1, the AC50 [1] was 35.5 µM [falling, single point] and the AC50 [2] was 25.1 µM [falling, partial curve, poor fit].
With COc1ccc(C)cc1S(=O)(=O)N1c2ccccc2CC1C (centres undefined) the AC50 [2] was 35.5 µM [rising, single point].
In the case of Cc1ccc(-n2nnnc2SCc2nnc(-c3ccccc3Br)o2)cc1, the AC50 [2] is reported as 35.5 µM [rising, single point].
For O=C(Cc1ccc(Br)cc1)Nc1ccc(S(=O)(=O)NCC2CCCO2)cc1 (centres undefined), the AC50 [2] was 11.2 µM [falling, partial curve].
For CC1Cc2cc(C3(O)C(=O)c4ccccc4C3=O)ccc2N1 (centres undefined), the AC50 [2] was 5.01 µM [rising, partial curve, poor fit].
In the case of c1cc(C2CCN(Cc3nc(-c4ccc5c(c4)OCO5)no3)CC2)ccn1, the AC50 [1] is reported as 12.6 µM [falling, single point] and the AC50 [2] is reported as 20 µM [falling, partial curve, poor fit].
For Cc1ccc(-c2cc(C(=O)Nc3cccnc3)c3ccccc3n2)o1, the AC50 [2] was 15.8 µM [rising, partial curve, poor fit].
With Cc1cccc(-c2c3c(=O)n(C)c(=O)n(C)c3c3cccnn23)c1 the AC50 [1] was 22.4 µM [rising, partial curve, poor fit] and the AC50 [2] was 3.98 µM [rising, partial curve, poor fit].
For CCc1nc2c(cnn2-c2ccc(Cl)cc2)c(=O)n1-c1ccc(OC)cc1, the AC50 [1] was 6.31 µM [rising, partial curve] and the AC50 [2] was 8.91 µM [rising, partial curve].
For O=C(CSc1nnc(-c2ccccc2)c(-c2ccccc2)n1)NCc1ccco1, the AC50 [2] was 11.2 µM [rising, partial curve].
For CCOc1ccccc1N1CCN(C(=O)c2ccc3[nH]c4c(c3c2)CCCC4)CC1, the AC50 [1] was 2.24 µM [rising, partial curve] and the AC50 [2] was 17.8 µM [rising, partial curve, poor fit].
